Values quoted from earlier work in patent US8987322B2, “Pharmaceutical formulations for carrier-mediated transport statins and uses thereof” (Circ Pharma Research and Development Limited, priority 2003, dated 2015).

How the values were obtained:
[1] = like that found in the stomach

stability in an acidic environment [1]: stable in acidic environments
time to steady-state plasma levels (in vivo): 32 to 72 h
delay of tmax when taken with food (with food): 10 h
reduction of Cmax when taken with food (with food): 50%
Compound: CC(C)c1c(C(=O)Nc2ccccc2)c(-c2ccccc2)c(-c2ccc(F)cc2)n1CC[C@@H](O)C[C@@H](O)CC(=O)O [atorvastatin]
